± gives the standard deviation. The entries are a selection whose mix differs from that of the whole data set. Many of these values have a large error.
test system: MILI (PIWIL2) piRISC loaded with Kctd7 piRNA (26 nt); assay: pre-steady-state target cleavage rate (min^-1); MIWI and MILI are mouse PIWI proteins and EfPiwi is from a freshwater sponge; tags in brackets are library labels; higher = faster piRNA-guided slicing of the target; conditions: guide: Kctd7 piRNA 5'p-UGUUAAUCUCUCAGAGAAGGUGACAG; auxiliary factor: 500 nM mouse GTSF1
How it was run: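 The pre-steady-state cleavage rate was obtained by Cleave-'n-Seq with a burst-and-steady-state fit. A transcribed, DNA-blocked target RNA library (0.1 nM) was mixed with 1 nM active affinity-purified piRISC carrying one synthetic guide, with or without 500 nM GTSF1 partner protein, in HEPES–potassium acetate buffer at 33 °C for 0–8 or 0–960 min. Uncleaved targets were sequenced and normalised to depth and to weakly complementary targets, with three trials pooled and k3 capped at 0.0001 min^-1.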

Sequence	pre-steady-state target cleavage rate
UAGUGACAGUCCUUCUCUGACUCAUUAAGA	0.000139 ± 0.018
UAGUGACACACCAACUCUGAGAGAUUAUGA	0.00174 ± 0.0049
UAGUGACAGUGGAAGAGACUCAGUUUAACA	0.000531 ± 0.011
UAGUGACAGUGGAAGACUGAGAGAUAUAACA	0.000263 ± 0.019
UAGUGACAGACCUUCUCUGAGUGUUUAACA	0.000651 ± 0.014
UAGUGAGUCUGGUUCUCUGAGAGAUUAUGA	0.000802 ± 0.0099
UAGUGACACACCUUCUCUGACUCAUUAUGA	0.000143 ± 0.025
UAGUGACUCACCUUCUGACAGAGAUAUUGA	0.000234 ± 0.032
UAGUCUGUCACCUUCUCUGAGAGAUUUAACA	0.245 ± 0.023
UAGUGAGUCAGCUUCUCUGAGAGAUUUACA	0.1 ± 0.018
UAGUGACAGUGCUUCUCUGAGAAUUAACA	0.000384 ± 0.012
UAGUCUGUCACGAUCUCUGAGAGAUUUUGA	0.00168 ± 0.0056
UAGUGACACACCUUCUCUGAGAGAUCAACA	0.0804 ± 0.024
UAGUGACAGUGGAUCCCUGAGAGAUUAACA	0.000326 ± 0.01
UAGUGUGUCACCUUCUCUGAGAGAUUAAUCA	0.18 ± 0.032
UAGUGACAGUCCUUCUGUGAGAGAUUAUGA	0.000943 ± 0.0061
UAGUGUGUCACCUUCUCACUGAGAUUUUGA	0.000601 ± 0.015
UAGUGACUCACCUUCUCUGAGACAUUAAGA	0.00109 ± 0.0058
UAGUGAGUCACCUUCUCUGAAGAGAUUAACA	0.0119 ± 0.0044
UAGUGACAGUGGUUCUCUGAGAGUUUAACA	0.00043 ± 0.014
UAGUGACAGUGGAACUCUGAGAGAUUAAACA	0.000127 ± 0.049
UAGUGACAGUGCAUCUCUGAGAGAUUAUCA	0.00119 ± 0.0054
UAGUGACUCACCUUGAGUGAGAGAUUAAGA	0.000395 ± 0.018
UAGUCUGUCACCUUCUCUCAGAGAUUAACA	0.064 ± 0.0081

Sequence	pre-steady-state target cleavage rate
UAGUGACAGUGGAAGACUGAGAGGUUAACA	0.000115 ± 0.023
UAGUGACAGUCCUUCUCUCAGACAUUAACA	0.00333 ± 0.0035
UAGUGACACAGGUUCUCUGAGAGAUUUUGA	0.000328 ± 0.022
UAGUGACAGUGGAAGAGACAGAGAUUAAUA	0.000263 ± 0.034
UAGUGACAGUCCUUCUCAGAGAGAUUAUCA	0.00412 ± 0.0043
UAGUGAGUCACCCUUCUCUGAGAGAUUAACA	0.19 ± 0.02
UAGUGACUCACCUUCUCUCUGAGAUUAUGA	0.000951 ± 0.0087
UAGUGACAGACCUAGACUGAGAGAUUAACA	0.00231 ± 0.0046
UAGUGACAGUGCUUCUCUGUCUGAUUAACA	0.000469 ± 0.0096
UAGUGACUCACCUUCUCUGACUGAUUAACA	0.00124 ± 0.0074
UAGUGACUCACCUUCUCUGAGUGAUUAUGA	0.000446 ± 0.013
UAGUGACAGUGGAAGACUGAGAUGAUUAACA	0.000159 ± 0.018
UAGUGUGUCACCUUCUCUGUCUGAUUAACA	0.00149 ± 0.0073
UAGUGACAGUCCUUCACUGAGAGAUUAUCA	0.00293 ± 0.004
UAGUGUGUCACCUUCUCUGUCAGAUUUUGA	0.000294 ± 0.039
UAGUGACAGUGGAUGUCUGAGAGAUUUACA	0.000223 ± 0.024
UAGUGACAGAGGUUCUCUGAGAGAUUAAGA	0.0016 ± 0.005
UAGUGACAGACCAAGUCUGAGAGAUUAUGA	0.00045 ± 0.022
UAGUGACUCACCUUCUCUGAGUGAUUAUCA	0.000644 ± 0.015
UAGUGACAGACCUUCUCUGAGACAUUAAGA	0.00054 ± 0.019
UAGUGACUCACCUUCUCUGAGAGAGUUAACA	0.118 ± 0.017
UAGUGACAGUGCUUCUCUGAGAGAUAUUCA	0.000354 ± 0.013
UAGUGACACACCUUCUCUGAGACUUUAACA	0.00232 ± 0.004
UAGUGACUCACCUUCUCACUGAGAUUAAGA	0.00278 ± 0.0042

Sequence	pre-steady-state target cleavage rate
UAGUCUGUCACCUUCUCUGAGAGAUCAACA	0.114 ± 0.018
UAGUGAGUCACCUUGACUGAGAGAUUAAGA	0.00128 ± 0.0089
UAGUGACAGUGGAAGACUGAGAGAUUAACCA	0.000127 ± 0.031
UAGUCUGUGACCUUCUCUGAGAGAUUUUGA	0.00188 ± 0.0037
UAGUGUGACACCUUCUCUGAGUGAUUAACA	0.00251 ± 0.0052
UAGUGACAGUCCAAGUCUGAGAGAUUAAGA	0.000574 ± 0.013
UAGUGACAGUGGUUGUCUGAGAGAAUAACA	0.000323 ± 0.019
UAGUGACAGUGGAUAUCUGAGAGAUUAACA	0.00214 ± 0.0022
UAGUGACACACCUUCUCUGAGUCUAAUUGA [g10:g22:cont:t1A]	0.000499 ± 0.013
UAGUGAGUCACCUUCUCUGAGAGAUUAAGA	0.219 ± 0.035
UAGUGACAGUGCUUCUCUGAGGAUUAACA	0.000249 ± 0.014
UAGUGACAGUGGAACGUCUGAGAGAUUAACA	0.00151 ± 0.003
UAGUGACUCAGCUUCUCUGAGUGAUUAACA	0.00132 ± 0.0088
UAGUGUGUCACCUUCUCACAGAGAUUUUGA	0.00191 ± 0.0068
UAGUGACACACGUUCUCUGAGAGAUAUUGA	0.000487 ± 0.013
UAGUGACAGUGGAGCUCUGAGAGAUUAACA	0.000615 ± 0.0077
UAGUGACAGACCUUCUCUGAGUCUUUUUGA	0.000411 ± 0.029
UAGUGACAGUGGUUCACUGAGUGAUUAACA	0.0022 ± 0.0037
UAGUGACAGACCUUCUCUGAGAGUAUAACA	0.00513 ± 0.0052
UAGUGACAGUGCUUCUACUGAGAGAUUAACA	0.00159 ± 0.0055
UAGUCUGUGUGCUUCUCUGAGAGAUUAUGA	0.000819 ± 0.0047
UAGUGACAGUCCUUCUCUAGAGAGAUUAACA	0.000507 ± 0.015
UAGUCUGUCACCUUGCUCUGAGAGAUUAACA	0.299 ± 0.059
UAGUGACAGUGGAAGAGACUCUCAUUAACU [g2:g7:cont:t1U]	0.000112 ± 0.033

Sequence	pre-steady-state target cleavage rate
UAGUGACACUGCUUCUCUGAGAGAUAUUGA	0.000354 ± 0.012
UAGUGAGUCACCUUCUCUGAGAGAUUAAUCA	0.292 ± 0.053
UAGUGACAGUGGAAGUCUGAGAAGAUUAACA	0.00016 ± 0.017
UAGUGACAGUCCUUCUCUGAGCAGAUUAACA	0.00085 ± 0.0073
UAGUGACUCACCUUCUGUGACAGAUUAACA	0.0678 ± 0.011
UAGUGACAGUGGAAUUCUGAGAGAUUAACA	0.00018 ± 0.028
UAGUGUGUCACCUUCAGAGAGAGAUUAAGA	0.00336 ± 0.0058
UAGUGACUCACCUUCAGUGAGAGAUUUUGA	0.00314 ± 0.0039
UAGUGACAGUCCAACUCUGAGAGAUUAAGA	0.000311 ± 0.0073
UAGUCUCAGACCUUCUCUGAGAGAUUAUGA	0.00304 ± 0.0043
UAGUGAGUCACCUUCUCUGAGAGAUUAACU [g2:g24:cont:t1U]	0.288 ± 0.038
UAGUGACUCACCUUCACUGAGUGAUUAACA	0.00256 ± 0.004
UAGUGACAGACCUUCUGACUCUCUAAUUGA [g15:g21:cont:t1A]	0.000384 ± 0.019
UAGUGACAGUGGAACUCUGAGAGAUUAGACA	0.000146 ± 0.038
UAGUGACUCACCUUCUCUAGAGAGAUUAACA	0.000637 ± 0.013
UAGUGACAGUGGAAGAGACAGAGAUUUACA	0.000453 ± 0.011
UAGUGUGUCACCUUCUCACAGAGAUUAUGA	0.00166 ± 0.0085
UAGUGACAGUCCUUGUCUGAGAGAUUAUCA	0.00224 ± 0.0062
UAGUGACAGACCUUCUCGUGAGAGAUUAACA	0.000361 ± 0.034
UAGUGACAGACCUUCUCUGACAGAAUAACA	0.000376 ± 0.029
UAGUGACAGUGGAAGAGACAGAGAUAUACA	0.000282 ± 0.024
UAGUGAGUCACGUUCUCUGAGAGAUAUUGA	0.00136 ± 0.0081
UAGUGACAGACCUUCUCUGAGUCUUUAACA	0.000348 ± 0.025
UAGUGACAGUCCUUCUCACAGAGAUUAACA	0.00123 ± 0.0067

Sequence	pre-steady-state target cleavage rate
UAGUGACUCACCUUCUCUGACUCAUUAAGA	0.000451 ± 0.014
UAGUGACAGUGCUUCUCUGACUGAUUAACA	0.000129 ± 0.016
UAGUGACAGUGCAUCUCUGAGACAUUAACA	0.000208 ± 0.015
UAGUGACAGUGGAAGUCUGAGAAUUAACA	0.000105 ± 0.052
UAGUGACUCACCUAGUCUGAGAGAUUAACA	0.0896 ± 0.0089
UAGUGACAGUGGAACUCUGAGAGCUUAACA	0.000211 ± 0.029
UAGUGACACACCUUCUCUGAGAGAUUACA	0.0753 ± 0.023
UAGUGACAGACCUUCUCUGAGUCAUUAACA	0.001 ± 0.0092
UAGUGACAGACCAUCUCUGAGAGAUUAUGA	0.0015 ± 0.0073
UAGUGACAGUGGAAGAGACUCAGAUUAACA	0.000304 ± 0.013
UAGUGACACACCUUCUCUGAGUGAUUUACA	0.000912 ± 0.013
UAGUGACAGUGCUUCUCUGGAGAUUAACA	0.00111 ± 0.0057
UAGUGACAGUGGAAGACUGAGUGAUUAACA	0.000145 ± 0.017
UAGUGACACACCUUCUCUGACUGAUUUUGA	0.000102 ± 0.088
UAGUGACAGUGGAACUCUGACUCAUUAACA	0.000327 ± 0.019
UAGUGACACACCUUCUCUGCAGAGAUUAACA	0.00221 ± 0.0052
UAGUGAGUCACCUUCUCUGAGAGAUUAAA	0.202 ± 0.045
UAGUGACAGACCUUCUCUGAGAAUUAACA	0.000676 ± 0.016
UAGUGACAGUGGAACUCUGAGAGAUUAACA [g2:g16:cont:t1A]	0.000448 ± 0.013
UAGUGACAGACCUUGUCUGAGUGAUUAACA	0.00271 ± 0.0033
UAGUGACACUGGUUCUCUGAGAGAUUAUGA	0.00246 ± 0.0035
UAGUGUGUCUGCUUCUCUGAGAGAUAUUGA	0.000203 ± 0.025
UAGUGACAGUGGAACUCUGAGCGAUUAACA	0.00705 ± 0.0085
UAGUGACAGUCCUUCUCUGACACAUUAACA	0.000318 ± 0.02

Sequence	pre-steady-state target cleavage rate
UAGUGACAGUCCUUCUCUGAGAGAUAACA	0.000266 ± 0.0069
UAGUCUGUCACCUUCUCUGAGAGAUUAAA	0.13 ± 0.026
UAGUGACAGACCUUCAGAGAGAGAUUAACA	0.00113 ± 0.013
UAGUGACAGUGCUUCUCUGAGAGAUAAUCA	0.000617 ± 0.0056
UAGUGACAGUGCUUCUCUCGAGAGAUUAACA	0.000794 ± 0.0097
UAGUGACAGACCUUCUGACAGAGAUUAACA	0.000752 ± 0.015
UAGUGACUCACCUUCUCUGUGUGAUUAACA	0.000738 ± 0.011
UAGUGACAGUCCUUCUCAUGAGAGAUUAACA	0.000962 ± 0.0084
UAGUGACAGUGCUUCUCUCUGAGAUUAACA	0.001 ± 0.0044
UAGUGACAGUGGAUACUCUGAGAGAUUAACA	0.000339 ± 0.0082
UAGUGACAGUGGAAGAGAGACAGAUUAUCA	0.000169 ± 0.024
UAGUGACAGUGCUUCUCUGACUCAUUAAGA	0.000143 ± 0.023
UAGUGACAGUGGAACUCUGACACAUUAACA	0.000165 ± 0.025
UAGUGACAGUCCUUCUCUGAGGAUUAACA	0.000405 ± 0.0087
UAGUGACAGUGGAACUCUGAGAGAUUAACCA	0.000398 ± 0.014
UAGUGAGUCACCUUCUCUGAGAGAUUAAUA	0.217 ± 0.03
UAGUGACAGUGCUACACUGAGAGAUUAACA	0.00282 ± 0.0037
UAGUGACAGUGGAAGAGACUGUCUUUAACA	0.000402 ± 0.017
UAGUGACAGUGCUUCUCUGAGACAUAAACA	< 0.0001
UAGUGACAGUGGAAGUCUGAGAGAAUUAACA	0.00012 ± 0.022
UAGUGACAGUGGAAGAGUGAGAGAUUCAACA	0.00026 ± 0.025
UAGUGACAGUGGAAGAGACUCAGAUUAUCA	0.000158 ± 0.01

— the supplement of paper PMC10338343
